Measured values published in patent US20170246212A1, “METHODS TO UPREGULATE AND SUPPRESS AN EXPRESSION OF IMMUNOMODULATORY CELLS” (National Health Research Institutes, priority 2014, published 2017).
For at least one compound, name, drawing or mass did not settle the structure.

Tests used:
[1] = test system: PD-L1 surface expression on monocytes; test: PD-L1 surface expression on human monocytes from PBLs, flow cytometry; format: cell-based; conditions: inhibitor pretreatment (WP1066 2.5 μM; SP600125 25 μM; PD98059 20 μM; LY294002 10 μM; Akt inhibitor III 10 μM), then 100 ng/ml rhIL-25 for 18 hours
Method: FIG. 9. IL-25-mediated PD-L1 expression in human monocytes and hMSCs is mediated through JNK and STAT3 with STAT3 involved in transcriptional control of PD-L1. (A) Human PBLs were pretreated with inhibitors of STAT3 (WP1066; 2.5 μM), JNK (SP600125; 25 μM), or MEK1 (PD98059; 20 μM) prior to 100 ng/ml rhIL-25 for 18 hours, with subsequent flow cytometric analysis for PD-L1 surface expression on monocytes, gated using FSC and SSC. Filled histograms represent isotype control. Unfilled histograms represent PD-L1 antibody staining. Pooled data (3 donors) provided in (B) with bars representing MFI. hMSCs were treated with inhibitors of (C) STAT3 (WP1066; 2.5 μM) and (D) JNK (SP600125; 25 μM) for 6 hours, and subsequently assessed by flow cytometric analysis for PD-L1 surface expression. Pooled data (all 3 donors) for each respective inhibitor provided (left charts) with bars representing MFI. (D) Putative GAS elements (STAT-binding sites) in the proximal promoter region of human PD-L1 gene; 700 bp region upstream from the transcription start site), as determined with TFSearch web-based software. (E) Binding of STAT3 or IgG (negative control) in hMSCs was analyzed by chromatin immunoprecipitation (ChIP) with promoter-specific primers for region 1 and region 2. […]
FIG. 10. […] After IL-25 treatment for 18 hours, the expression of PD-L1 was assessed by cell surface staining. […]

[2] = test system: PD-L1 surface expression on hMSCs; test: PD-L1 surface expression on hMSCs, flow cytometry; format: cell-based, human; conditions: inhibitor for 6 hours (WP1066 2.5 μM; SP600125 25 μM)
Method: FIG. 7. IL-25 induces PD-L1 surface expression on hMSCs and human monocytes. (A) PD-L1 in siCtrl MSCs (left panel) and siPD-L1 MSCs (right panel) was analyzed by surface staining. (B) Freshly isolated human PBLs were co-cultured without (left panels) or with siCtrl MSCs (middle panels) or siPD-L1 MSCs (right panels) for 3 days, followed by PMA/ionomycin stimulation for 6 hours. IL-17A production in CD3^+ T cells was assessed by intracellular staining. Representative data shown with numbers in the top right quadrants representing the percentages of IL-17A-producing CD3^+ T cells. Pooled data from PBLs (n=4) and 2 hMSC donors (donors A & B) are provided in (C). Folds of reversed phenotypes of silL-25 and siPD-L1 are provided in (D). (E) PD-L1 expression on siCtrl hMSCs (left panel) and silL-25 hMSCs (right panel) was assessed by cell surface staining Filled histograms represent isotype control. […] Pooled data provided in (F) of PD-L1 expression (indicated by fold-change in mean fluorescence intensity; MFI) on silL-25-hMSCs and siPD-L1-hMSCs (all 3 donors). […] (G) hMSCs were treated with indicated doses of rhIL-25 for 18 hours and assessed for cell surface PD-L1 expression by cell surface staining. […] (H) Human PBLs were treated with indicated doses of rhIL-25 for 18 hours, and assessed for cell surface PD-L1 expression on monocytes, gated using FSC and SSC, by flow cytometric analysis. […]

Structure (SMILES) | IL-25-mediated induction of PD-L1 in human primary monocytes [1] | PD-L1 expression in hMSCs [2]
O=c1cc(N2CCOCC2)oc2c(-c3ccccc3)cccc12 [LY294002] | only partially affected | 
Oc1c2ccccc2c2c3c(cccc13)N=N2 [SP600125] | substantially abolished | strongly reduced
